From article PMC12040169 (PLOS Biology, 2025)
The list shows a part of the results.

tested on: T1, CTL2-GFP (C. trachomatis L2/434/Bu, GFP-expressing); parameters: species or system HeLa; Intracellular C. trachomatis growth in HeLa cells, bulk GFP fluorescence relative to DMSO; conditions: bulk GFP, single well; 28.5 h, 10 µM; inhibitor
T1 construct: L2/434/Bu, GFP-expressing

SMILES	% of control remaining
NC(=O)c1cccc(-c2cnc(N)c(NCc3ccco3)n2)c1 [CBK063660]	125.941%
COc1cc(CNC(=O)c2ccc3[nH]ccc3c2)cc(OC)c1OC [CBK149073]	108.753%
O=C(NC1CCCC1)c1cccnc1 [CBK200236]	86.6233%
CC(C)OC(=O)Cc1nc(CN2CCc3sccc3C2C)cs1 (stereo not drawn) [CBK305284]	136.748%
CC(C)(C)c1ccc(C(=O)N2CC[C@H]3NC(=O)N(Cc4ccccc4)C(=O)[C@H]32)cc1 [CBK289294]	117.142%
OCCN1CCN(C(=S)NC2CCCC2)CC1 [CBK265886]	134.054%
O=C(O)c1ccc2c(c1)C(=O)N(c1ccc3c(c1)Cc1cc(N4C(=O)c5ccc(C(=O)O)cc5C4=O)ccc1-3)C2=O [CBK261333]	115.53%
COc1ccc2[nH]c3c(c2c1)CCN(C(C)=O)C31CCNCC1 [CBK284429]	107.801%
CC(C)C(NS(=O)(=O)c1ccc(I)cc1)C(=O)O (stereo not drawn) [CBK268703]	106.978%
CS(=O)(=O)N1CC2(CCN(Cc3cc(=O)[nH]c(=O)[nH]3)CC2)c2ccccc21 [CBK126679]	117.902%
N#C/C(=C\c1cn(CCC(N)=O)c2ccccc12)c1nc2ccccc2[nH]1 [CBK267966]	133.447%
COc1ccc([C@@]23CC[C@@H](NC(=O)Nc4cccc(-c5cnco5)c4)C[C@@H]2N(C)CC3)cc1OC [CBK059338T]	98.682%
COc1ccc(Nc2cc(-c3ccco3)ncn2)c(OC)c1 [CBK090761]	72.8381%
CC(=O)N1CC[C@H]2NC(=O)CNC(=O)C3(CCCC[C@H]2C1)CCN(C(=O)/C=C/c1ccccc1)CC3 [CBK292092]	123.671%
O=S(=O)(NCc1ccc(C(F)(F)F)cc1)c1cccs1 [CBK043744]	116.785%
CCCCN(/C=N/S(=O)(=O)c1ccccc1)CCCC [CBK026576]	152.927%
COc1cc2cc(CN(Cc3cccnc3)C(=O)Nc3ccc(F)cc3)c(=O)[nH]c2cc1OC [CBK108193]	130.931%
CC(C)N(CCOc1nccnc1/C=C/c1ccccc1)C(C)C [CBK106889]	150.977%
Nc1ncc(-c2ccoc2)nc1-c1ccc(C(=O)N2CCOCC2)cc1 [CBK064076]	106.021%
O=C(c1ccno1)N1CCc2ccccc21 [CBK200409]	121.548%
Cn1c(=O)n(C)c2cc(S(=O)(=O)NCCOc3ccc(C(=O)O)cc3)ccc21 [CBK299824]	131.814%
O=C(Nc1ccccc1[N+](=O)[O-])C1Cc2ccccc2CN1S(=O)(=O)c1ccc(F)cc1 (stereo not drawn) [CBK266129]	207.937%
CCOC(=O)c1ccc(N2C(=O)CC(N3CCCc4ccccc43)C2=O)cc1 (stereo not drawn) [CBK268720]	108.949%
COc1nccnc1OC1CCN(CC(=O)Nc2c(C)cccc2C)CC1 [CBK084249]	112.852%

An excerpt from above in order of SMILES length, low to high:
SMILES	% of control remaining
CC(C)C(NS(=O)(=O)c1ccc(I)cc1)C(=O)O (stereo not drawn) [CBK268703]	106.978%
CC(C)N(CCOc1nccnc1/C=C/c1ccccc1)C(C)C [CBK106889]	150.977%
COc1cc(CNC(=O)c2ccc3[nH]ccc3c2)cc(OC)c1OC [CBK149073]	108.753%

The listing continues:

SMILES	% of control remaining
O=C(CC[C@@H]1CNC(=O)[C@@H]2C[C@H](NC(=O)c3cccc(F)c3)CN12)Nc1ccccc1 [CBK289008]	139.396%
CC(=O)c1ccc(NC(=O)N2Cc3nc[nH]c3C[C@H]2c2nc(-c3ccc(F)cc3)no2)cc1 [CBK288971]	117.599%
CCN(CC)Cc1c(O)ccc2occ(C(=O)c3cc(OC)ccc3OC)c12 [CBK261949]	132.347%
O=C(c1ccccc1F)N1CCN(C2CCN(Cc3ccccc3)CC2)CC1 [CBK263404]	105.376%
CC(C)C(=O)Nc1ccc(-c2csc(N3CCN(C)CC3)n2)cc1 [CBK304317C]	94.1234%
COc1ccccc1CN(CCCN)C(=O)NC(C)c1ccccc1 (stereo not drawn) [CBK034667C]	103.609%
CCOC(=O)c1sc(C)c(C(N)=O)c1/N=C1\CCCN1 [CBK020893]	113.062%
COc1ccc(C(=O)Nc2c(OC)cc(F)cc2OC2CCNCC2)cc1 [CBK050294T]	113.059%
CCC(Sc1nnc2c(n1)[nH]c1ccccc12)C(=O)Nc1sc2c(c1C#N)CCCC2 (stereo not drawn) [CBK263917]	131.017%
Cc1cc(C)n(-c2ccc3nnc(CCC(=O)O)n3n2)n1 [CBK307616]	120.156%
c1ccc(-c2cccc(-c3cc(N4CCN(CCN5CCCC5)CC4)ncn3)c2)cc1 [CBK091164]	136.984%
CCOC(=O)C1CCN(C(=O)CCn2ccc3ccncc32)CC1 [CBK284720]	141.526%
N#CCCn1cc(C(=O)N2CCCCC2)c(-c2ccccc2)n1 [CBK305931]	102.063%
COc1ccc(N2CCN(c3cc(-c4cc(C(F)(F)F)cc(C(F)(F)F)c4)ncn3)CC2)cc1OC [CBK091020]	95.7562%
O=C(Oc1cccc(NC(=O)c2ccco2)c1)c1cccc(S(=O)(=O)N2CCOCC2)c1 [CBK262272]	99.3748%
COc1ccc([N+](=O)[O-])c(Oc2cccc(C(F)(F)F)c2)n1 [CBK002796]	108.871%
O=C(Nc1cccc(O)c1)c1ccc2c(c1)C(=O)N(c1cccc(N3C(=O)c4ccc(C(=O)Nc5cccc(O)c5)cc4C3=O)n1)C2=O [CBK261199]	99.3519%
CCC(CC)C(=O)Nc1nc(OC)cnc1-c1cccc(C(=O)N(C)C)c1 [CBK145392]	106.466%
Cc1ccc(CCSCC(=O)O)cn1 [CBK261072]	112.509%
COC(=O)CCC(=O)NNC(=O)c1cccc(Br)c1 [CBK261606]	100%
COc1cc(C)c(CN2CCN(S(=O)(=O)c3cc(C(=O)O)cs3)CC2)cc1OC [CBK297093]	117.03%
CCCCN1CCC2CN(CCCC(c3ccc(F)cc3)c3ccc(F)cc3)CCN2C1=O (stereo not drawn) [CBK024880C]	106.134%
Cc1ccc(-c2cccc(N3CCN(CCN4CCCC4)CC3)n2)cc1C [CBK037799]	155.438%
Cc1nn(C)cc1-c1cncn1CC(C)N1CCC(C)CC1 (stereo not drawn) [CBK281789]	144.274%
